Source: patent US10709702B2, “Treatment of skin disorders by topical administration of VEGF inhibitors” (AMD THERAPEUTICS LLC, priority 2015, dated 2020)
At least one compound was matched to its structure with a doubt left.

Assays:
acne = experiment: Topical treatment of acne sites on the face of a person, diameters recorded once daily; assay type: in vivo, human; settings: FIG. 1
[1] = Solubility of the compound in detergent; assay type: physicochemical

With CO[C@H]1/C=C/O[C@@]2(C)Oc3c(C)c(O)c4c(O)c(c(/C=N/N5CCN(C)CC5)c(O)c4c3C2=O)NC(=O)/C(C)=C\C=C\[C@H](C)[C@H](O)[C@@H](C)[C@@H](O)[C@@H](C)[C@H](OC(C)=O)[C@@H]1C [rifampicin] the “Redness of skin as acne” value (acne) was “reduced redness” and the Dissolution in detergent [1] was “readily dissolved in detergent”.
